The assay has as its target β-catenin (UniProt P35222). The assay is described as follows: co-IP; cell lysate in IP lysis buffer (1% NP-40, 50 mM Tris-HCl pH 8.0, 150 mM NaCl, protease and phosphatase inhibitors), overnight at 4 °C; methods describe both HA/Flag beads for transfected proteins and primary antibody with Protein A/G beads for endogenous proteins; which was used for Fig. 5A, the bait and the cells are not told.

The chains behind the UniProt entries cited, without tags or fusion partners.
UniProt P35222: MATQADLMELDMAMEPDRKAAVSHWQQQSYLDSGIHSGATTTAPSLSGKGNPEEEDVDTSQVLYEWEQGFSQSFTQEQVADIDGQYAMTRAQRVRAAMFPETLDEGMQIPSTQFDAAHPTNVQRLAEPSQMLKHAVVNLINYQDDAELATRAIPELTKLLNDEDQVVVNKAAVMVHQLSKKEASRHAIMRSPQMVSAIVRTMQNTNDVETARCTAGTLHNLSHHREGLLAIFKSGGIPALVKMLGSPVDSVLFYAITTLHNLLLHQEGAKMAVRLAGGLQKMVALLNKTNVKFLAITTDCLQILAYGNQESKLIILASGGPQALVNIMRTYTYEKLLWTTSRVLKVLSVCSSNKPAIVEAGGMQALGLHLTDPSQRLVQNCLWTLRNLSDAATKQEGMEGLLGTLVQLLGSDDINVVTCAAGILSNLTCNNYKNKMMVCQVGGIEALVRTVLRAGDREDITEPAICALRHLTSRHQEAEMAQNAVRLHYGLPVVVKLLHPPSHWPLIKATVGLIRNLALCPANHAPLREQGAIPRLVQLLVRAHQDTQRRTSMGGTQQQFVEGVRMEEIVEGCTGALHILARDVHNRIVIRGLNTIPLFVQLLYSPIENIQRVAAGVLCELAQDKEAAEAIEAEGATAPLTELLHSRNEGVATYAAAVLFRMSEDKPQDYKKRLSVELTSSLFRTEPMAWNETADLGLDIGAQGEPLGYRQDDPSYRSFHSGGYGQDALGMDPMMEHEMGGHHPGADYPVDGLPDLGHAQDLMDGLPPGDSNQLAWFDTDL

No constants are given. Whether binding was seen depends on the method and setting. Binding seen in cells or lysates may run through a third protein. Some binding calls cover weakened binding; strength is not graded here.

B1: EMSY (a transcriptional regulator interacting with BRCA2) (protein, UniProt Q7Z589 1-1322)
chain: MPVVWPTLLDLSRDECKRILRKLELEAYAGVISALRAQGDLTKEKKDLLGELSKVLSISTERHRAEVRRAVNDERLTTIAHNMSGPNSSSEWSIEGRRLVPLMPRLVPQTAFTVTANAVANAAIQHNASLPVPAETGSKEVVCYSYTSTTSTPTSTPVPSGSIATVKSPRPASPASNVVVLPSGSTVYVKSVSCSDEDEKPRKRRRTNSSSSSPVVLKEVPKAVVPVSKTITVPVSGSPKMSNIMQSIANSLPPHMSPVKITFTKPSTQTTNTTTQKVIIVTTSPSSTFVPNILSKSHNYAAVTKLVPTSVIASTTQKPPVVITASQSSLVSNSSSGSSSSTPSPIPNTVAVTAVVSSTPSVVMSTVAQGVSTSAIKMASTRLPSPKSLVSAPTQILAQFPKQHQQSPKQQLYQVQQQTQQQVAQPSPVSHQQQPQQSPLPPGIKPTIQIKQESGVKIITQQVQPSKILPKPVTATLPTSSNSPIMVVSSNGAIMTTKLVTTPTGTQATYTRPTVSPSIGRMAATPGAATYVKTTSGSIITVVPKSLATLGGKIISSNIVSGTTTKITTIPMTSKPNVIVVQKTTGKGTTIQGLPGKNVVTTLLNAGGEKTIQTVPTGAKPAILTATRPITKMIVTQPKGIGSTVQPAAKIIPTKIVYGQQGKTQVLIKPKPVTFQATVVSEQTRQLVTETLQQASRVAEAGNSSIQEGKEEPQNYTDSSSSSTESSQSSQDSQPVVHVIASRRQDWSEHEIAMETSPTIIYQDVSSESQSATSTIKALLELQQTTVKEKLESKPRQPTIDLSQMAVPIQMTQEKRHSPESPSIAVVESELVAEYITTERTDEGTEVAFPLLVSHRSQPQQPSQPQRTLLQHVAQSQTATQTSVVVKSIPASSPGAITHIMQQALSSHTAFTKHSEELGTEEGEVEEMDTLDPQTGLFYRSALTQSQSAKQQKLSQPPLEQTQLQVKTLQCFQTKQKQTIHLQADQLQHKLPQMPQLSIRHQKLTPLQQEQAQPKPDVQHTQHPMVAKDRQLPTLMAQPPQTVVQVLAVKTTQQLPKLQQAPNQPKIYVQPQTPQSQMSLPASSEKQTASQVEQPIITQGSSVTKITFEGRQPPTVTKITGGSSVPKLTSPVTSISPIQASEKTAVSDILKMSLMEAQIDTNVEHMIVDPPKKALATSMLTGEAGSLPSTHMVVAGMANSTPQQQKCRESCSSPSTVGSSLTTRKIDPPAVPATGQFMRIQNVGQKKAEESPAEIIIQAIPQYAIPCHSSSNVVVEPSGLLELNNFTSQQLDDEETAMEQDIDSSTEDGTEPSPSQSSAERS
On to B1, for which the binding result is listed as “binds”.
